Data as given in PubChem BioAssay AID1159599 (NIAID, 2016).
The whole screen tested 756 reagents; below is a part drawn at random. In the full data, 130 (17%) were called active. 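Calls are two-sided: actives include siRNAs that raised the Tnf reporter as well as ones that lowered it.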 Entries without a mark were called inactive. The numbers tell different reagents against one gene apart. No sequences are given here. The record does not give: the amount of reagent.

Screen: 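Effect of knocking down TLR signalling components on Tnf reporter after LPS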
System: mouse RAW264.7 G9 macrophage reporter clone cells
Knock-down reagent: single siRNA against mouse genes
Duration: 48 to 72 h after siRNA transfection, LPS for the last 16 h
Treatment: LPS (Salmonella minnesota R595), 16 h before fixation; dose not stated
Read-out: 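High-content imaging of red fluorescence driven by the Tnf promoter after LPS, background subtracted, scored per siRNA as a plate-wise median/MAD robust z-score, replicate mean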
Scale: Tnf reporter z-score: higher = stronger Tnf promoter reporter signal after LPS
Hit rule: 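Called active if the mean z-score over replicates passes 1.5 in either direction, up or down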
Meaning of the calls: active = strong change either way; inactive = little change

Ripk3 (GeneID 56532) #1
- Tnf reporter z-score, replicate mean: -0.404

Ripk3 (GeneID 56532) #2
- Tnf reporter z-score, replicate mean: 0.206

Ripk3 (GeneID 56532) #3
- Tnf reporter z-score, replicate mean: 0.11

Ripk3 (GeneID 56532) #4
- Tnf reporter z-score, replicate mean: -0.145

Ripk3 (GeneID 56532) #5
- Tnf reporter z-score, replicate mean: 0.977

Ripk3 (GeneID 56532) #6
- Tnf reporter z-score, replicate mean: -1.86 (active)

Ifnar2 (GeneID 15976) #1
- Tnf reporter z-score, replicate mean: -0.767

Ifnar2 (GeneID 15976) #2
- Tnf reporter z-score, replicate mean: -0.799

Ifnar2 (GeneID 15976) #3
- Tnf reporter z-score, replicate mean: -0.101

Ifnar2 (GeneID 15976) #4
- Tnf reporter z-score, replicate mean: 0.166

Ifnar2 (GeneID 15976) #5
- Tnf reporter z-score, replicate mean: 0.341

Ifnar2 (GeneID 15976) #6
- Tnf reporter z-score, replicate mean: -0.742

Mapk13 (GeneID 26415) #1
- Tnf reporter z-score, replicate mean: -0.999

Mapk13 (GeneID 26415) #2
- Tnf reporter z-score, replicate mean: -1.38

Mapk13 (GeneID 26415) #3
- Tnf reporter z-score, replicate mean: -0.708

Mapk13 (GeneID 26415) #4
- Tnf reporter z-score, replicate mean: -1.28

Mapk13 (GeneID 26415) #5
- Tnf reporter z-score, replicate mean: -0.549

Mapk13 (GeneID 26415) #6
- Tnf reporter z-score, replicate mean: -1.88 (active)

Ets1 (GeneID 23871) #1
- Tnf reporter z-score, replicate mean: -0.451

Ets1 (GeneID 23871) #2
- Tnf reporter z-score, replicate mean: 0.823

Ets1 (GeneID 23871) #3
- Tnf reporter z-score, replicate mean: -0.418

Ets1 (GeneID 23871) #4
- Tnf reporter z-score, replicate mean: 0.944

Ets1 (GeneID 23871) #5
- Tnf reporter z-score, replicate mean: -1.74 (active)

Ets1 (GeneID 23871) #6
- Tnf reporter z-score, replicate mean: -0.745

Arf6 (GeneID 11845) #1
- Tnf reporter z-score, replicate mean: -0.735

Arf6 (GeneID 11845) #2
- Tnf reporter z-score, replicate mean: 0.938

Arf6 (GeneID 11845) #3
- Tnf reporter z-score, replicate mean: 0.641

Arf6 (GeneID 11845) #4
- Tnf reporter z-score, replicate mean: 1.07

Arf6 (GeneID 11845) #5
- Tnf reporter z-score, replicate mean: 2.3 (active)

Arf6 (GeneID 11845) #6
- Tnf reporter z-score, replicate mean: 1.82 (active)

Tirap (GeneID 117149) #1
- Tnf reporter z-score, replicate mean: -1.05

Tirap (GeneID 117149) #2
- Tnf reporter z-score, replicate mean: -0.948

Tirap (GeneID 117149) #3
- Tnf reporter z-score, replicate mean: -1.95 (active)

Tirap (GeneID 117149) #4
- Tnf reporter z-score, replicate mean: -1.9 (active)

Tirap (GeneID 117149) #5
- Tnf reporter z-score, replicate mean: -0.86

Tirap (GeneID 117149) #6
- Tnf reporter z-score, replicate mean: -2.55 (active)

Tollip (GeneID 54473) #1
- Tnf reporter z-score, replicate mean: 0.865

Tollip (GeneID 54473) #2
- Tnf reporter z-score, replicate mean: -1.58 (active)

Tollip (GeneID 54473) #3
- Tnf reporter z-score, replicate mean: -1.12

Tollip (GeneID 54473) #4
- Tnf reporter z-score, replicate mean: -0.252

Tollip (GeneID 54473) #5
- Tnf reporter z-score, replicate mean: 1.42

Tollip (GeneID 54473) #6
- Tnf reporter z-score, replicate mean: -0.861

Tlr7 (GeneID 170743) #1
- Tnf reporter z-score, replicate mean: -0.987

Tlr7 (GeneID 170743) #2
- Tnf reporter z-score, replicate mean: -1.33

Tlr7 (GeneID 170743) #3
- Tnf reporter z-score, replicate mean: -0.452

Tlr7 (GeneID 170743) #4
- Tnf reporter z-score, replicate mean: 0.385

Tlr7 (GeneID 170743) #5
- Tnf reporter z-score, replicate mean: -0.152

Tlr7 (GeneID 170743) #6
- Tnf reporter z-score, replicate mean: 0.336

Tlr9 (GeneID 81897) #1
- Tnf reporter z-score, replicate mean: -0.103

Tlr9 (GeneID 81897) #2
- Tnf reporter z-score, replicate mean: -2.14 (active)

Tlr9 (GeneID 81897) #3
- Tnf reporter z-score, replicate mean: 1.59 (active)

Tlr9 (GeneID 81897) #4
- Tnf reporter z-score, replicate mean: -0.0508

Tlr9 (GeneID 81897) #5
- Tnf reporter z-score, replicate mean: -0.461

Tlr9 (GeneID 81897) #6
- Tnf reporter z-score, replicate mean: -1.31

Il12a (GeneID 16159) #1
- Tnf reporter z-score, replicate mean: 0.553

Il12a (GeneID 16159) #2
- Tnf reporter z-score, replicate mean: -1.82 (active)

Il12a (GeneID 16159) #3
- Tnf reporter z-score, replicate mean: -1.77 (active)

Il12a (GeneID 16159) #4
- Tnf reporter z-score, replicate mean: -0.261

Il12a (GeneID 16159) #5
- Tnf reporter z-score, replicate mean: -1.81 (active)

Il12a (GeneID 16159) #6
- Tnf reporter z-score, replicate mean: 0.614

Active calls, among the entries above:
Ripk3 (GeneID 56532) #6
- Tnf reporter z-score, replicate mean: -1.86 (active)

Mapk13 (GeneID 26415) #6
- Tnf reporter z-score, replicate mean: -1.88 (active)

Ets1 (GeneID 23871) #5
- Tnf reporter z-score, replicate mean: -1.74 (active)

Arf6 (GeneID 11845) #5
- Tnf reporter z-score, replicate mean: 2.3 (active)

Arf6 (GeneID 11845) #6
- Tnf reporter z-score, replicate mean: 1.82 (active)

Tirap (GeneID 117149) #3
- Tnf reporter z-score, replicate mean: -1.95 (active)

Tirap (GeneID 117149) #4
- Tnf reporter z-score, replicate mean: -1.9 (active)

Tirap (GeneID 117149) #6
- Tnf reporter z-score, replicate mean: -2.55 (active)

Tollip (GeneID 54473) #2
- Tnf reporter z-score, replicate mean: -1.58 (active)

Tlr9 (GeneID 81897) #2
- Tnf reporter z-score, replicate mean: -2.14 (active)

Tlr9 (GeneID 81897) #3
- Tnf reporter z-score, replicate mean: 1.59 (active)

Il12a (GeneID 16159) #2
- Tnf reporter z-score, replicate mean: -1.82 (active)

Il12a (GeneID 16159) #3
- Tnf reporter z-score, replicate mean: -1.77 (active)

Il12a (GeneID 16159) #5
- Tnf reporter z-score, replicate mean: -1.81 (active)
